Binding data for one substance are collected here from paper PMC6525205, “Structure of the human frataxin-bound iron-sulfur cluster assembly complex provides insight into its activation mechanism” (Nature Communications, 2019).

Sequences of proteins named here, by UniProt entry; tags and fusion partners are left off. A change or cut given only in a name is not applied to a line headed by its entry. Residues count along the entry.
UniProt Q9HD34: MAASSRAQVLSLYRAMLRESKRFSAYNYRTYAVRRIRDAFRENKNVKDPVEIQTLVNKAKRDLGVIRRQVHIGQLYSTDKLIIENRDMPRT
UniProt Q9Y697, residues 56-457: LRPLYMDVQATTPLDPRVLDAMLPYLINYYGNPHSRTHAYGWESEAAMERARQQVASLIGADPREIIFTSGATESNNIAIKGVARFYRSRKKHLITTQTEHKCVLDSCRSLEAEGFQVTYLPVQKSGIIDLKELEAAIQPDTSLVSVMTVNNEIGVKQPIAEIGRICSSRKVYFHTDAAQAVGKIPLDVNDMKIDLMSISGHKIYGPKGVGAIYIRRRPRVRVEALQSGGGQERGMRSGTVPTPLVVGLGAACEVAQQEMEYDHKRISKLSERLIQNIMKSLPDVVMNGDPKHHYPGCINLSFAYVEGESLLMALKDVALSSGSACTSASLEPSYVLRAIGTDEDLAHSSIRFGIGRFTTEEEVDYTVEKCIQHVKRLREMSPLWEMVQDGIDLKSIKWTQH

The test has as its target His-tagged ISD11 (human) (UniProt Q9HD34). The test can be described thus: co-purification (Ni affinity, then size exclusion); proteins co-expressed in E. coli; His-ISD11 captured on Ni Sepharose; 50 mM HEPES pH 7.5, 500 mM NaCl, imidazole, 5% glycerol, 2 mM TCEP; then Superdex S200.

These are yes or no findings as the source states them, for the method shown. Some binding calls cover weakened binding; strength is not graded here.

Regarding “NFS1 (Δ1-55), non-tagged (from UniProt Q9Y697 56-457) (enzyme)”, the binding entry is “binds”.
